Source: publication PMC3115989
No constants are given. Whether binding was seen depends on the method and setting. In cells and extracts the contact can be indirect. Some binding calls cover weakened binding; strength is not graded here.

Chains of the proteins cited; added tags and fusions are not shown.
UniProt P37198: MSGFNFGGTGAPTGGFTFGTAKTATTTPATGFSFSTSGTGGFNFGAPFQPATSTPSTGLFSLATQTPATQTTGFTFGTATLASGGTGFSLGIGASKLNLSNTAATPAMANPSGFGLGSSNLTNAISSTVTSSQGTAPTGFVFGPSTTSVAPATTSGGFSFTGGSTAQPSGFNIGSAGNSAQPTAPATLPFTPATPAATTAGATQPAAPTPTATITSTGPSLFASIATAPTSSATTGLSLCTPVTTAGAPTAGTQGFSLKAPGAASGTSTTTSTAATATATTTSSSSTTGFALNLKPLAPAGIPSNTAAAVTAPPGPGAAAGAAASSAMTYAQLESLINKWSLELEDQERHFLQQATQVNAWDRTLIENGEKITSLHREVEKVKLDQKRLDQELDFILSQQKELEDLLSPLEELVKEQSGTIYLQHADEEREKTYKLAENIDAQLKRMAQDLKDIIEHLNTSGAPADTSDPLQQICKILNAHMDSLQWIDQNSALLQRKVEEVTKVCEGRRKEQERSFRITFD

Biological target: T1, ORP8 (endogenous, HuH7 cells) (human (endogenous in HuH7)) (UniProt Q9BZF1)
T1 sequence: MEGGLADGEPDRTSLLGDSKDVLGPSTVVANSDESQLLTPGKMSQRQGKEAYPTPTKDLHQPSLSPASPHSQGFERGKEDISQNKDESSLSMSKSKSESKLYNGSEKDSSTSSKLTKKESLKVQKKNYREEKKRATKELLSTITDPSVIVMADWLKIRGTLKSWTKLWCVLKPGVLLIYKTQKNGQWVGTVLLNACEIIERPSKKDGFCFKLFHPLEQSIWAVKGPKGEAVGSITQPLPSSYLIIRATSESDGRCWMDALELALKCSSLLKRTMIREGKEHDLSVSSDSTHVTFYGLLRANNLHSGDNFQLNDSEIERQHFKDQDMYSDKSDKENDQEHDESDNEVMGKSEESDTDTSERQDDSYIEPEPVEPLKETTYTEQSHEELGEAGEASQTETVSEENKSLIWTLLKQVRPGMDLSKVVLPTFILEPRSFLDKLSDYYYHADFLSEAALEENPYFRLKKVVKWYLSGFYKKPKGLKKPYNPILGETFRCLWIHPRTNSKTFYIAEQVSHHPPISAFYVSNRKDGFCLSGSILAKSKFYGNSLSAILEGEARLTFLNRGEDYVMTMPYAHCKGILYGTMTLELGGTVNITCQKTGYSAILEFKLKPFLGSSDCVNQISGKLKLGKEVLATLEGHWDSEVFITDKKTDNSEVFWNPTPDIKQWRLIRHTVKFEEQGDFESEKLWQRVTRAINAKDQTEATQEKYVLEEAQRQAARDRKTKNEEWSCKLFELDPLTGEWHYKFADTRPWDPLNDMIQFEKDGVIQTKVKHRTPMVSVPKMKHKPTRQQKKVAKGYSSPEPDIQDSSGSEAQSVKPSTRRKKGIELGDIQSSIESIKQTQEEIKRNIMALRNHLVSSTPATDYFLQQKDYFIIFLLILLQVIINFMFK
Assay: co-IP; lysate of untransfected HuH7 cells (50 mM Tris-Cl, 150 mM NaCl, 0.5 mM MgCl2, 10% glycerol, 0.5% Triton X-100, pH 8.0); immunoprecipitated with anti-ORP8 or control IgG at 4°C, rProtein G agarose; Western blot with anti-Nup62

“Nup62 (endogenous, HuH7 cells) (from UniProt P37198 1-522)” was tested, and the binding was “binds”.
